US8945864B2, “Method of determining 1,5-anhydroglucitol, and reagent composition for determining 1,5-anhydroglucitol” (Ikeda Food Research Co., Ltd., priority 2006, dated 2015)
At least one compound was matched to its structure with a doubt left.

Test system: Sinorhizobium sp. 97507
Experiment: Consumption of typical sugars by the isolated bacterium
Format: cell-based

OC[C@@H](O)[C@H](O)[C@H](O)[C@@H](O)CO [Dulcitol]
Consumption of typical sugars: −
